Legend:
[1] = test system: MG1655/F′Tn10; test: Total cellular platinum by atomic absorption spectrometry; type: cell-based, E. coli; conditions: highest cisplatin dose
[2] = test system: MG1655/F′Tn10; test: DNA platinum adduct levels by atomic absorption spectrometry; type: cell-based, E. coli; conditions: highest cisplatin dose

N.N.[Cl][Pt][Cl] [cisplatin, cis-diammine-dichloro-platinum(II)]
total cellular levels of cisplatin ([1]; co-treatment with tetracycline): small increase in total cellular levels of cisplatin
platinum levels (total cellular) ([1]; grown in tetracycline prior to cisplatin treatment, vs MG1655): the same
levels of DNA damage (platinum content in DNA) ([2]; co-treatment with tetracycline): small further increase in levels of DNA damage
cisplatin DNA damage (platinum content in DNA) ([2]; grown with tetracycline, vs MG1655): accumulated more DNA damage than MG1655 cells

Source: patent US7943600B2, “Antimicrobial combination therapy” (priority 2004, dated 2011)
